Source: US20240252432A1, “COMPOSITIONS, METHODS AND SYSTEMS FOR AEROSOL DRUG DELIVERY” (ASTRAZENECA PHARMACEUTICALS LP, priority 2021, published 2024)
At least one structure is not confirmed: it was looked up by name or label, or the drawing left a doubt.

How the values were obtained:
[1] = cited from earlier work
[2] = Particle size distribution by laser diffraction; type: physicochemical
Source text: When referred to herein, the term “optical diameter” indicates the size of a particle as measured by the Fraunhofer diffraction mode using a laser diffraction particle size analyzer equipped with a dry powder dispenser (e.g., Sympatec GmbH, Clasthal-Zellerfeld, Germany).
Suspending particles were manufactured by spray drying an emulsion of PFOB (perfluorooctyl bromide) and water stabilized by DSPC (1,2-Distearoyl-sn-Glycero-3-Phosphocholine). […] The particle size distribution of the suspending particles was determined by laser diffraction.
Active agent particles formed of budesonide, 16,17-(butylidenebis(oxy))-11,21-dihydroxy-(11-β,16-α)-pregna-1,4-diene-3,20-dione, were formed by micronizing budesonide using a jet mill. The particle size distribution of the budesonide (BD) was determined by laser diffraction.

SMILES	Dipole Moment [1] [Debye]	Latent Heat @ 25° C. [1] [kJ/kg]	Latent Heat @ Boiling Point [1] [kJ/kg]	Liquid Density @ 20° C. [1] [g/mL]	Liquid Viscosity @ 20° C. [1] [mPa · S]	Surface Tension @ 20° C. [1] [mN/m]	Vapor Pressure @ 20° C. [1] [kPa]	optical diameter below which 50% by volume of the particles lie [2]	optical diameter below which 90% by volume of the particles lie [2]
CC(F)F [HFC-152a, 1,1-Difluoroethane]	2.30	279.1	318.4	0.91	0.171	10.4	510		
CCCC1O[C@@H]2C[C@H]3[C@@H]4CCC5=CC(=O)C=C[C@]5(C)[C@H]4[C@@H](O)C[C@]3(C)[C@]2(C(=O)CO)O1 (stereo partly drawn) [budesonide, 16,17-(butylidenebis(oxy))-11,21-dihydroxy-(11-β,16-α)-pregna-1,4-diene-3,20-dione]								smaller than 1.9 μm	smaller than 4.3 μm
